Our source for the binding values is paper PMC5288343.

No constants are given. Whether binding was seen depends on the method and setting. Binding seen in cells or lysates may run through a third protein. Binding calls can cover weak binding; strength is not graded here.

This experiment concerns the target ETAE_p044 (chloramphenicol O-acetyltransferase) (Edwardsiella tarda). As to the kind of experiment: co-IP; mouse antiserum against ETAE_p037 or ETAE_p044 incubated with a mixture of recombinant ETAE_p037 or ETAE_p044 and E. tarda outer membrane proteins, 12 h at 4°C; captured on nProtein A Sepharose 4 Fast Flow, washed with pH 7.0 Tris-HCl, eluted with pH 2.4 glycine-HCl; bands identified by MALDI/TOF-TOF, OmpS2 (OmpF2) and OmpA also by Western blot; only the target purified. (In general: A western blot detects proteins with antibodies after separation by electrophoresis.)

B1: SucA (enzyme, UniProt A0AC61TJZ9 1-935)
chain: MQNGTMKAWLDSSYLAGANQSYIEQLYEDYLTDPDSVEHSWKILFQQLPANGLPPDQFHSQTRDYFRRLAKDPARFGQSFNDPQTDAKQVKVLQLINAFRFRGHQQANLDPLGLWKQEPVPDLDPAFHNLSAEDFDETFNVGSFAVGSETMRLADIYRALQQTYCGTIGAEYMHLTNTDEKRWLQQRLESVMGQPSFNAEEKRRFLRELTAAEGLERYLGAKFPGAKRFSLEGGDALIPMLKELIRHAGLHGTREVVLGMAHRGRLNVLINVLGKHADELFDEFAGKHKDHLGTGDVKYHMGFSSDMATEGGPVHLALAFNPSHLEIVSPVVMGSVRARRDRLDRTRSDIVLPITIHGDAAVTGQGIVQETLNMSQARGYEVGGTVRIVINNQIGFTTSNPLDARSSQYCTDIGKMVQAPIFHVNADDPEAVAFVTRLALDFRNTFKRDVFIDLVCYRRHGHNEADEPSATQPVMYQKIKKHPTPRKLYADRLTEQGVVSLEDATEMVNLYRDALDSGGCVVEEWRPMTMHSVTWDPYLHHEWDEAYPHAVETQRLQELARRISRVPEEVEMQARVAKIYADRAEMADGSKPFDWGGAETLAYATLVDEGIPVRLSGEDCGRGTFFHRHAVIHNQKDGSLYVPLENVHHAQGDFKVWDSVLSEAAVLAFEYGYASAEPRTLTIWEAQFGDFANGAQVVIDQFISSGEQKWGRLCGLVMLLPHGYEGQGPEHSSARLERYLQLCAQQNIQVCVPSTPAQVYHMLRRQALRGMRRPLVVMSPKSLLRHPLAISSLEELAQGSFQPAIGEIDPIDPQQVKRVVMCSGKVYYDLLEQRRKNGQENVAIVRIEQLYPFPHQAVQAVLAPYTQAHDFVWCQEEPLNQGAWYCSQHNFREVIPFGAVLRYAGRPASASPAVGYMSVHREQQQALVDDALHVE
As for B1, the binding entry is reported as “binds”.
